{"sequences": {"note": "Amino acid sequences for entries named in this document (tags omitted).", "UniProt P46938": "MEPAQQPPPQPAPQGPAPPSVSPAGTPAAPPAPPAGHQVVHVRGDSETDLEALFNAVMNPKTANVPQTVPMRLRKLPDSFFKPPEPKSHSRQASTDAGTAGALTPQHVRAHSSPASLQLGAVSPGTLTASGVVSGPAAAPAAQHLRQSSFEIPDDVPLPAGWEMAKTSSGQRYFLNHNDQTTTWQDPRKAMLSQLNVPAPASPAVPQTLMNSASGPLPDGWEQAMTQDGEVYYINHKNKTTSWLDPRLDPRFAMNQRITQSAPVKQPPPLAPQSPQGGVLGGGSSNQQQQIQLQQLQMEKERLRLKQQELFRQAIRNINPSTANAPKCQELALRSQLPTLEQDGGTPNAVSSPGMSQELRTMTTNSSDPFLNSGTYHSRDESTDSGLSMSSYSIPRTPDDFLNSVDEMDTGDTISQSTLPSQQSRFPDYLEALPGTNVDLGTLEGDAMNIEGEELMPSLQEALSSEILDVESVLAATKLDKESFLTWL", "UniProt Q02248": "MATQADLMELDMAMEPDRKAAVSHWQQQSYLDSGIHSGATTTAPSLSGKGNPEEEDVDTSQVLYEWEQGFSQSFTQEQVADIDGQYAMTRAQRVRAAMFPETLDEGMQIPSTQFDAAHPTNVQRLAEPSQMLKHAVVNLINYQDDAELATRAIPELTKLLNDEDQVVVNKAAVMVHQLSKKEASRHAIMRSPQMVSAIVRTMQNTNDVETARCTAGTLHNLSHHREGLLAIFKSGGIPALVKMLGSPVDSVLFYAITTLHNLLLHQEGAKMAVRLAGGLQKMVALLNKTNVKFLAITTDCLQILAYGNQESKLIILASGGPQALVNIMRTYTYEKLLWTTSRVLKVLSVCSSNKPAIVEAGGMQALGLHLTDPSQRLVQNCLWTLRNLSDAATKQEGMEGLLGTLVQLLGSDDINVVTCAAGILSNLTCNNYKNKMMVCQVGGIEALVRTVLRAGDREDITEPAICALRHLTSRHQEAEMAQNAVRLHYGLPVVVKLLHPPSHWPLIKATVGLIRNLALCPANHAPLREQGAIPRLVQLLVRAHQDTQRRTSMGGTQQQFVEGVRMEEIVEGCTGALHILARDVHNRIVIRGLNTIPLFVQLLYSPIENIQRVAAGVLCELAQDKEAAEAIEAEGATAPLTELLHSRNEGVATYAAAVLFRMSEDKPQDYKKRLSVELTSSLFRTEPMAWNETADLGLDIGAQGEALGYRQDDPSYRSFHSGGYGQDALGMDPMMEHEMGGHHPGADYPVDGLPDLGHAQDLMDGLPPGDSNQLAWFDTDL"}, "source": "paper PMC9274506", "target": "Yes-associated protein (YAP) (mouse (endogenous in PSCs)) (UniProt P46938)", "experiment": "co-IP; nuclear and cytoplasmic PSC lysates precipitated with anti-YAP or non-specific IgG for 2 h, after treatment of cells with Yoda1 (1 µM) for 24 h; immunoblot of precipitates", "note": "Results are given in words; binding and its absence hold for the method and conditions named. In cells and extracts the contact can be indirect. Some entries that bind do so weakly or less than the wild type.", "data": [{"substance": "β-catenin (from UniProt Q02248 1-781)", "values": [{"measurement": "binding", "result": "binds"}]}]}
